Laboratory results from paper PMC10289747.
No constants are given. Whether binding was seen depends on the method and setting. Binding seen in cells or lysates may run through a third protein. Here binding means that the protein was enriched with, or labelled near, the bait; the list need not be complete.

The chains behind the UniProt entries cited, without tags or fusion partners.
UniProt P28574: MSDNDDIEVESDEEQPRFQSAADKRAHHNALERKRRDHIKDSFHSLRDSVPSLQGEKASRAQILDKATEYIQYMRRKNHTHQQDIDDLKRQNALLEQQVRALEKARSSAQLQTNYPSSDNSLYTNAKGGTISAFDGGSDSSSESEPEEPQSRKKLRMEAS
UniProt Q02248: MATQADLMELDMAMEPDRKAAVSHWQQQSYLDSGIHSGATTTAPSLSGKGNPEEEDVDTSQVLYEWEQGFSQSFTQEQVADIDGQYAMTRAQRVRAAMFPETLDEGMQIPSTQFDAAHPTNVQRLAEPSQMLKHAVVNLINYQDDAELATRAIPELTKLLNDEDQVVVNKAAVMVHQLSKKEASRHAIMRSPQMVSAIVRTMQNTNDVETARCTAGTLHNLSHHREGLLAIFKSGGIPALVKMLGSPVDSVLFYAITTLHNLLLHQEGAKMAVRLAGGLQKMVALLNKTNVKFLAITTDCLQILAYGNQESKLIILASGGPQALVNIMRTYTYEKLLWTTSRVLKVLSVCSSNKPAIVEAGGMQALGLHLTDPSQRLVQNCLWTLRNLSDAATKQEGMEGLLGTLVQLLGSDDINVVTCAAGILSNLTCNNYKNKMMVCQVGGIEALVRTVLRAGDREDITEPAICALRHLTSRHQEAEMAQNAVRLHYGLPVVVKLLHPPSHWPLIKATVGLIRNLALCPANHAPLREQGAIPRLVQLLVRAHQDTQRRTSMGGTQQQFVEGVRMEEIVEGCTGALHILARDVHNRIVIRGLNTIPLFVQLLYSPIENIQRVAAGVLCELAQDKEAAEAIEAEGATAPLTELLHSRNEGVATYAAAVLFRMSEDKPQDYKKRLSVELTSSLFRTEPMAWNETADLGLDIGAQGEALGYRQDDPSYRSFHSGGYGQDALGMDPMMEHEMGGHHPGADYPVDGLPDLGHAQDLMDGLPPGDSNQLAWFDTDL
UniProt P70188: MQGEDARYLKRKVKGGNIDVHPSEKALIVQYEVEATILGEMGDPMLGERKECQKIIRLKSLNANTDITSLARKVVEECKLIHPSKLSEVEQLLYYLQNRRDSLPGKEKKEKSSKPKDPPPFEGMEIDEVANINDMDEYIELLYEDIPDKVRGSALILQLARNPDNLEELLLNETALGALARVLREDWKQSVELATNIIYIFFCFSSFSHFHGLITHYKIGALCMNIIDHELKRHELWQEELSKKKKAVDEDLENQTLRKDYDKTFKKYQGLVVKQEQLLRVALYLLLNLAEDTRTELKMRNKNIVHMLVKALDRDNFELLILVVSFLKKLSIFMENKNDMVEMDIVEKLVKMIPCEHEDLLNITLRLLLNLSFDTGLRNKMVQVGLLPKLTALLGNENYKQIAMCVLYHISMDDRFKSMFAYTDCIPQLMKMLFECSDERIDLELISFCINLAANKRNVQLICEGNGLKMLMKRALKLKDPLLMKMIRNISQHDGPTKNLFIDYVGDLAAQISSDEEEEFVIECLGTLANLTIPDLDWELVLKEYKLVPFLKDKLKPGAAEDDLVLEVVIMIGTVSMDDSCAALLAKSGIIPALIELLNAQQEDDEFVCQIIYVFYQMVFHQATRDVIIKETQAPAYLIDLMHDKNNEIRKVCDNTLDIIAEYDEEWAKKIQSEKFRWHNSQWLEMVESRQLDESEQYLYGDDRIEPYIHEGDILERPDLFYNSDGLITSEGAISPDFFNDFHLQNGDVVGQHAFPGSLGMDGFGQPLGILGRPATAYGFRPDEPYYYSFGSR
UniProt P63158: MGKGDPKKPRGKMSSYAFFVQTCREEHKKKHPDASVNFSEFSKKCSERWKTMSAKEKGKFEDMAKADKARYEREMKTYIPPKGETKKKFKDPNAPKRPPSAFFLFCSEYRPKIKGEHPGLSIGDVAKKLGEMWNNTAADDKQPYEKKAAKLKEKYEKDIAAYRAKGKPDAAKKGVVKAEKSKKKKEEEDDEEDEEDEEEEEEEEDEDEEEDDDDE

B1: WNT5B, mouse, endogenous (protein, UniProt P22726 18-359)
chain: QLLTDANSWWSLALNPVQRPEMFIIGAQPVCSQLPGLSPGQRKLCQLYQEHMSYIGEGAKTGIRECQHQFRQRRWNCSTVDNTSVFGRVMQIGSRETAFTYAVSAAGVVNAISRACREGELSTCGCSRAARPKDLPRDWLWGGCGDNVEYGYRFAKEFVDAREREKNFAKGSEEQGRALMNLQNNEAGRRAVYKMADVACKCHGVSGSCSLKTCWLQLAEFRKVGDRLKEKYDSAAAMRITRQGKLELANSRFNQPTPEDLVYVDPSPDYCLRNETTGSLGTQGRLCNKTSEGMDGCELMCCGRGYDRFKSVQVERCHCRFHWCCFVRCKKCTEVVDQYVCK
B2: IL-6, mouse, endogenous (protein, UniProt P08505 25-211)
chain: FPTSQVRRGDFTEDTTPNRPVYTTSQVGGLITHVLWEIVEMRKELCNGNSDCMNNDDALAENNLKLPEIQRNDGCYQTGYNQEICLLKISSGLLEYHSYLEYMKNNLKDNKKDKARVLQRDTETLIHIFNQEVKDLHKIVLPTPISNALLTDKLESQKEWLRTKTIQFILKSLEEFLKVTLRSTRQT
B3: Bcl9 (B-cell lymphoma 9), mouse, endogenous (protein, UniProt Q9D219 1-1425)
chain: MHPSNPKVRSSPSGNTQSSPKSKQEVMVRPPTVMSPSGNPQLDSKFSNQGKPGGSASQSQPSPCDSKSGGHTPKALPGPGGSMGLKNGAGNGAKGKGKRERSISADSFDQRDPGTPNDDSDIKECNSADHIKSQESQHTPHSMTPSTATAPRSSTPSHGQTPAPEPISAQKTPAKVVYVFSTEMANKAAEAVLKGQVETIVSFHIQNISNSKSERSTAPLNTQIPTLRNDPKPLPQQPPAPANQDQNSSQNARLQPTPPIQAPAPKPTAAPRPLDRESPGVENKLIPPVGSPGSSTPLPPDGTGPNSTPNNRAVTPVSQGSNSSSADPKAPPPPPVSGGEPPTLGENPDGLSQEQLEHRERSLQTLRDIQRMLFPDEKEFTAGQTGGPQQNTGVLDGPQKKPDGPIQAMMSQSQSLGKGPGPRTDVGAPFGPQGHRDVPFSPDEMVPPNMSSQSGPIGPDHLDHMTPEQIAWLKLQQEFYEEKRRKQEQVVVQQCSLQDMMVHQHGPRGVVRGPPPPYQMAPGEGWAPGAEPFPDGINISHSLPPRGMAPHPNMPGSQMRLPGFAGMINSEMEGPNVPNPASRPGLSGVSWPDDVPKIPDGRNFPPGQGVFSGPGRGERFPNPQGLSEEMFQQQLAEKQLALPPGMSMEGIRPGMEMNRMIPGSQRHMEPGSNPIFPRIPVEGPLSPSRGDFPKGMPPQIGPGRELEFGMVPGGMKGEVNLNVNMGSSSQMIPQKMREAGAGPEEMMKLRPGSSEMLPAQQKMVPLPFGEHPQQEYGVGPRPFLPMSQGPGSNSGLRNLREPIGPDQRTNSRLSHMPPLPLNPSSNPTSLSTAPPVQRGLGRKPLDISVAGSQVHSPGINPLKSPTMHQVQSPMLGSPSGNLKSPQTPSQLAGMLAGPAAAASIKSPPVLGSAAASPVHLKSPSLPAPSPGWTSSPKPPLQSPGIPPNHKAPLTMASPAMLGSVESGGPPPPTASQPASVNIPGSLPSSTPYPMPPEPTLSQNPLSIMMSRMSKFAMPSSTPLYHDAIKTVASSDDDSPPARSPNLPSMNSMPGMGINTQNPRISGPNPVVPMPTLSPMGMTQPLSHSNQMPSPNAMGPSIPPHGVPMGPGLMSHNPIMGHGSQEPPMVPQGRMGFPQGFPPVQSPPQQVPFPHNGPTGGQGNFPGGIGFPGEGPLGRPSNLPQSSADPALCKPGGPGAPDSFTVLGNSMPSVFTDPDLQEVIRPGATGIPEFDLSRIIPSEKPSQTLQYFPRGEVPGRKQPQGPGPGFSHMQGMMSDQAPRMGLALPGMGGPGPVGTPDIPLGTSPSMPGHNPMRPPAFLQQGMMGPHHRMMSPAQSTVPGPATLMTNPAAAVGMIPGKDRGPAGLYTHPGPVGSPGMMMSMQGMMGPQQNIMIPPQMRPRGMAADVGMGGFSQGPGNPGNMMF
B4: TBC1d2b, mouse, endogenous (protein, UniProt Q3U0J8 1-965)
chain: MPGAGDGVEESCSGGEGAVPGTGSEAGAVAGREPSRLCGYLQKLSGKGPLRGYRSRWFVFDSRRCYLYYFKSPQDALPLGHLDIADACFSYQGRDEAAEPGADPPTHFQVHSAGAVTVLKAPNRELMTYWLQELQQKRWEYCNSLDMMKWDSRTSPTPGDFPKGLVARDTTDIISQHPNPSAEKARTVLAVEAAPGELVGDRAAHQPAPGHPNPINFYSLKQWGNELKNSMSSFRPGRGHSESRRTVFYTNEEWELLDPPPKDLEESLVPEERKKPMPEGSKGVASSGFPFEFGRNPYKGKRPLKDIIGSYKNRHSSSDPLLEGTATSSGSSGGPTKPVPEMQLQIQSQQEELEQLKKDLSSQKELIRLLQQTVRSSQYDKYFTNPQISQGVPGDTLELLHQKDEQILGLSGQLERFGLEKESLQQEVRTLKSKVGELNERLGMLMETIQAKDEVIIKLSACEGSVSSPTLGPSSPLAIPASKDQLELDRLKDSLQGYKSQNKFLNKEILELSALRRNAERRERDLMAKYSSLEAKLCQVESKYLILLQEMKTPVCSEEQGPARDVIAQLLEDALQVESQEQPEQAFVKPHLVSEFDIYGFRTVPDDDEEEKLVAKVRALDLKTLYLTDNQEVSTGVKWENYFASTMNREMACSPELKNLIRAGIPHEHRSKVWKWCVDRHTRKFKDSMEPDYFQTLLQKALEKQNPASKQIELDLLRTLPNNKHYSSPTSEGIQKLRSVLLAFSWRNPDIGYCQGLNRLVAVALLYLDQEDAFWCLVTIVEVFMPRDYYTKTLLGSQVDQRVFRDLLSEKLPRLHTHFEQYKVDYTLITFNWFLVVFVDSVVSDILFKIWDSFLYEGPKVIFRFALALFKYKEEEILKLQDSMSIFKYLRYFTRTILDARKLISISFGDLNPFPLRQIRNRRAYHLEKVRLELTELEAIREDFLRERDTSPDKGELVSDEEEDT

Molecular target: MAX (MYC-associated factor X), mouse, endogenous (mouse (endogenous in mouse liver)) (UniProt P28574)
Test: affinity purification with mass spectrometry; immunoprecipitation with an anti-MAX antibody from liver lysates of CCA and saline control mice; three specimens per group pooled

binding, binds:
β-catenin (catenin beta-1), mouse, endogenous (from UniProt Q02248 1-781)
kifap3 (KIF-associated protein 3), mouse, endogenous (from UniProt P70188 1-793)
High-mobility group box-1 (HMGB1), mouse, endogenous (from UniProt P63158 1-215)
B1
B2
B3
B4
